Assay results reported in PMC5595348.
Results are given in words; binding and its absence hold for the method and conditions named. Binding seen in cells or lysates may run through a third protein. Some binding calls cover weakened binding; strength is not graded here. For some of these results: Tags and fused reporters may be left off the sequences shown. One block for each molecule: values may come before it.

Amino acid sequences for entries named in this document (tags omitted). A change or cut given only in a name is not applied to a line headed by its entry. Chains listed by the source or under a name are the forms on record and can include a tag or linker.
UniProt O14964: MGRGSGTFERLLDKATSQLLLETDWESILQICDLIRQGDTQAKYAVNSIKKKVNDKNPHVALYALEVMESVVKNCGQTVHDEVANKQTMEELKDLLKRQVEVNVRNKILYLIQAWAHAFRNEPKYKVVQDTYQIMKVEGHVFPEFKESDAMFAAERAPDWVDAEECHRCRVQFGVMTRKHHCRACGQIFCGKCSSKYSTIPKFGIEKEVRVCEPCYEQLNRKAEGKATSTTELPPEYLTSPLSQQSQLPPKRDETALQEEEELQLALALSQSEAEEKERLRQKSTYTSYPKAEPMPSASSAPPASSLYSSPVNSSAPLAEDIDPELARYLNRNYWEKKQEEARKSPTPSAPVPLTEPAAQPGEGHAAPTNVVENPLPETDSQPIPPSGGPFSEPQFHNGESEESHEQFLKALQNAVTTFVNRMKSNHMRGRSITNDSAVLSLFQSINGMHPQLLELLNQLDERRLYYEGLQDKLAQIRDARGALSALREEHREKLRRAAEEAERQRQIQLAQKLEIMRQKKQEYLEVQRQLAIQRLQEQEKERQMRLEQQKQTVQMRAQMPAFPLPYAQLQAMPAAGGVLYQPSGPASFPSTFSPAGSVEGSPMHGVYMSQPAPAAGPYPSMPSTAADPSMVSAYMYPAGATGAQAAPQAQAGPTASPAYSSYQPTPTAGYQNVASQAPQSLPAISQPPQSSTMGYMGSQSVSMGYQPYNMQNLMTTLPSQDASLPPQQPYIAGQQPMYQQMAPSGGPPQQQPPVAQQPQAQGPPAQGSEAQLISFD
dFYVE-HRS-Myc (HRS with a deletion of amino acids 166-215, FYVE domain deleted) (O14964-1, form named): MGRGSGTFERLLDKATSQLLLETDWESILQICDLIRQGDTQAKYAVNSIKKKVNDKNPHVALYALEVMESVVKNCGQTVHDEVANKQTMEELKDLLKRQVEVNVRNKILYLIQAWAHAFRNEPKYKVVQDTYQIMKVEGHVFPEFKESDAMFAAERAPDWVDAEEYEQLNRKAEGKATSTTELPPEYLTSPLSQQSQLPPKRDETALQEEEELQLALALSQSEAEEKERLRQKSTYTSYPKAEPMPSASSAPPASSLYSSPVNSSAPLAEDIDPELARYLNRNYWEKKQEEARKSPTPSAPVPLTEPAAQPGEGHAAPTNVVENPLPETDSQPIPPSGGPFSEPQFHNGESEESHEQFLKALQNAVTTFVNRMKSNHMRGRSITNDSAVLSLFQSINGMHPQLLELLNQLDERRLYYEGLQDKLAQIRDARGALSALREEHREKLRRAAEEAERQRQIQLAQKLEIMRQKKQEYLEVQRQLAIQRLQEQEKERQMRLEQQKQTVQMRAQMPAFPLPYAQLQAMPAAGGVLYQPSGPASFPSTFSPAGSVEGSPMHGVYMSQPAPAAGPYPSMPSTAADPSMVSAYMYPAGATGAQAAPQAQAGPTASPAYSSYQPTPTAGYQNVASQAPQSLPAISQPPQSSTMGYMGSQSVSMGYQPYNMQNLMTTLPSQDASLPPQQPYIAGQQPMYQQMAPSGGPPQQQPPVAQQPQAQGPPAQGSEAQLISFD
UniProt P51617: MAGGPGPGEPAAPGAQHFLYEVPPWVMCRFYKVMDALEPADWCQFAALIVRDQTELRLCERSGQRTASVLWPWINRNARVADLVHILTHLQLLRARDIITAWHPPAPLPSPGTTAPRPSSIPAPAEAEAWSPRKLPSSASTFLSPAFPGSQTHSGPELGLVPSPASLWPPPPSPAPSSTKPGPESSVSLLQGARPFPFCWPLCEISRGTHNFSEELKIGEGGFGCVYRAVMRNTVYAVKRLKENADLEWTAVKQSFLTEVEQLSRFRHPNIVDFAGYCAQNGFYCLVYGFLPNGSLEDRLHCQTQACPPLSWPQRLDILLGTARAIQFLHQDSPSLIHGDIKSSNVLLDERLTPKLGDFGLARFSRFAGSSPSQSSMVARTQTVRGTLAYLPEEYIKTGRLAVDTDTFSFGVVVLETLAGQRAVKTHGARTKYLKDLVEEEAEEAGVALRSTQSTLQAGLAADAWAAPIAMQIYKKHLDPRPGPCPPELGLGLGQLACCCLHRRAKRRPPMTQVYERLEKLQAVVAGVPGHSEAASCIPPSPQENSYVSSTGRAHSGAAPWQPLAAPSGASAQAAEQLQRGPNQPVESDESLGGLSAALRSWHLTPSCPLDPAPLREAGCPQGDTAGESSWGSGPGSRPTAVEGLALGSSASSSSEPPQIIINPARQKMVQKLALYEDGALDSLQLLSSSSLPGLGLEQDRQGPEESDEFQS
UniProt Q99836: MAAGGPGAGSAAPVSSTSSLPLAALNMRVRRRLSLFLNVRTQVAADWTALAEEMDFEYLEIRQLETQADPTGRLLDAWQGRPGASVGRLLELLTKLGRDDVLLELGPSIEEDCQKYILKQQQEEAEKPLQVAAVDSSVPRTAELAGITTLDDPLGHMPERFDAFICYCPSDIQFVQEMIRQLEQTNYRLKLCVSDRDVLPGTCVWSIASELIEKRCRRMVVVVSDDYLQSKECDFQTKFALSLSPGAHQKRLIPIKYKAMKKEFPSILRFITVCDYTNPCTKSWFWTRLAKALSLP

What was measured:
[1] = target: T1, TLR7 (endogenous) (human (endogenous in THP-1)) (UniProt Q9NYK1); assay: co-IP; endogenous proteins; macrophages treated with R848 (100 ng/ml) for indicated times, separated into cytosol (S100K) and membrane (P100K) fractions by 100,000 g ultracentrifugation; fractions immunoprecipitated (TLR7) and analysed by Western blot
T1 sequence: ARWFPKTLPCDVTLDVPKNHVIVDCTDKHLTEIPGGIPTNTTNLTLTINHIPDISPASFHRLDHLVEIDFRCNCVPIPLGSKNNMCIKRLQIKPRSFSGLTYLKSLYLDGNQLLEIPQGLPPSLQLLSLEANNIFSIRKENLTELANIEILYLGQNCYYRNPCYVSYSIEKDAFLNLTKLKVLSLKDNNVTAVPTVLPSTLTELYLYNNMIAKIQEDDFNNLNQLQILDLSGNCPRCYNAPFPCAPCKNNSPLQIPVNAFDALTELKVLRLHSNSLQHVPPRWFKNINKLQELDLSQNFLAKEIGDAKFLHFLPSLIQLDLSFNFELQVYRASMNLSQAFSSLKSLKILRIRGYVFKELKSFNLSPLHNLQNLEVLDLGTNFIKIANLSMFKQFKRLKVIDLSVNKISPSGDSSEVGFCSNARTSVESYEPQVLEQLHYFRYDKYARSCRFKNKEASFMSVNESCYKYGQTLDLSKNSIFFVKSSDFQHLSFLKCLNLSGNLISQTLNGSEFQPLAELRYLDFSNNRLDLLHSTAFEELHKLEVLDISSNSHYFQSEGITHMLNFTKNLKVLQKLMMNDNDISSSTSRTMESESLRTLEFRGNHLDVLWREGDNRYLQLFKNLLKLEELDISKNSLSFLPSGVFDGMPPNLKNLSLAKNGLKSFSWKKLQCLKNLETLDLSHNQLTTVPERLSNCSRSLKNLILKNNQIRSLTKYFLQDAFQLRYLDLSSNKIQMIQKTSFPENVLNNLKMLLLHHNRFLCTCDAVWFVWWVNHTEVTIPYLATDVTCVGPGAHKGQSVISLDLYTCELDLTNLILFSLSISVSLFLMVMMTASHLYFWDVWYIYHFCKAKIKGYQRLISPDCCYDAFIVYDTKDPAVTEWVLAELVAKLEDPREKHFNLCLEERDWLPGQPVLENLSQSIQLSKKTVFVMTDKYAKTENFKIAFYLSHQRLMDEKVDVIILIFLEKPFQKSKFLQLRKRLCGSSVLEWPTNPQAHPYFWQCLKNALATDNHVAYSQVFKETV

[2] = target: T1, TLR7 (endogenous) (human (endogenous in THP-1)); assay: co-IP; endogenous proteins; macrophages derived from THP-1 cells stimulated with R848 (100 ng/ml) or infected with EV71 (MOI = 5) for various times, also after transfection of siR-HRS or siR-NC; lysed in RIPA buffer; immunoprecipitated with rabbit anti-TLR7 or normal rabbit IgG and protein G …; Western blot
Flag-TAB1 (human) = target: T2, Flag-TAB1 (human) (UniProt Q15750); assay: co-IP; HEK293T cells co-transfected with Flag-TLR7 or Flag-TAB1 and HRS-Myc (or dFYVE-Myc); cell lysates immunoprecipitated with anti-Flag or anti-Myc antibodies; Western blot
T2 sequence: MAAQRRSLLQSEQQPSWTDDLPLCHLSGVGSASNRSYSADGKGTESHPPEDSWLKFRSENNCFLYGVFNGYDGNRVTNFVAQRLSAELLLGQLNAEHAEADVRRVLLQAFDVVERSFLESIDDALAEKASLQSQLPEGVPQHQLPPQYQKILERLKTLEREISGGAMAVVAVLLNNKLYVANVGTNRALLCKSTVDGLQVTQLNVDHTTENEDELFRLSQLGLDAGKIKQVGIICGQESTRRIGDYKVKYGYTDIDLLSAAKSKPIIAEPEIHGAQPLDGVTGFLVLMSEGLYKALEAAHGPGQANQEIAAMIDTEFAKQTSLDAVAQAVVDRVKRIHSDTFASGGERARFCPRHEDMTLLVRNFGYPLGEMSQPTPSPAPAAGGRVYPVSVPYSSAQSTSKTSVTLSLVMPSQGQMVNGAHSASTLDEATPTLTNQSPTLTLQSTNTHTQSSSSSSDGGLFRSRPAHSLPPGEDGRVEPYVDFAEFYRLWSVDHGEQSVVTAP

[3] = target: T3, Flag-TLR7 fusion protein (human) (UniProt Q9NYK1); assay: as above
T3 sequence: T1 sequence

GST-HRS (human) = GST-HRS (human) (UniProt O14964); assay: pull-down; 25 ug purified GST or GST-HRS and glutathione-sepharose beads incubated with THP-1 cell lysate for 2 h at 4 °C; four washes with ice-cold lysis buffer; immunoblot; only the target purified
[4] = target: HRS-Myc fusion protein (hepatocyte growth factor-regulated tyrosine kinase substrate) (human) (UniProt O14964); assay: co-IP; HEK293T cells co-transfected with HRS-Myc and GFP or GFP fusion proteins; whole cell lysates immunoprecipitated with anti-Myc antibody; Western blot with anti-GFP and anti-Myc

binding [1]: binds | binding [2]: binds
Molecule: HRS (endogenous) (from UniProt O14964-1 1-777)

binding (Flag-TAB1 (human)): binds | binding [3]: binds
Molecule: HRS-Myc fusion protein (hepatocyte growth factor-regulated tyrosine kinase substrate) (from UniProt O14964-1 1-777)

Molecule: IRAK1 (endogenous) (from UniProt P51617 1-712)
binding [2]: binds

binding [2]: binds
Molecule: MyD88 (endogenous) (from UniProt Q99836 1-296)

binding [3]: no binding
Molecule: dFYVE-HRS-Myc (HRS with a deletion of amino acids 166-215, FYVE domain deleted) (from UniProt O14964-1 1-777)

binding (GST-HRS (human)): binds
B1: TLR7 (endogenous) (receptor, UniProt Q9NYK1 27-1049)
chain: T1 sequence

binding [2]: binds
B2: PKCζ (endogenous) (protein, UniProt Q05513 1-592)
chain: MPSRTGPKMEGSGGRVRLKAHYGGDIFITSVDAATTFEELCEEVRDMCRLHQQHPLTLKWVDSEGDPCTVSSQMELEEAFRLARQCRDEGLIIHVFPSTPEQPGLPCPGEDKSIYRRGARRWRKLYRANGHLFQAKRFNRRAYCGQCSERIWGLARQGYRCINCKLLVHKRCHGLVPLTCRKHMDSVMPSQEPPVDDKNEDADLPSEETDGIAYISSSRKHDSIKDDSEDLKPVIDGMDGIKISQGLGLQDFDLIRVIGRGSYAKVLLVRLKKNDQIYAMKVVKKELVHDDEDIDWVQTEKHVFEQASSNPFLVGLHSCFQTTSRLFLVIEYVNGGDLMFHMQRQRKLPEEHARFYAAEICIALNFLHERGIIYRDLKLDNVLLDADGHIKLTDYGMCKEGLGPGDTTSTFCGTPNYIAPEILRGEEYGFSVDWWALGVLMFEMMAGRSPFDIITDNPDMNTEDYLFQVILEKPIRIPRFLSVKASHVLKGFLNKDPKERLGCRPQTGFSDIKSHAFFRSIDWDLLEKKQALPPFQPQITDDYGLDNFDTQFTSEPVQLTPDDEDAIKRIDQSEFEGFEYINPLLLSTEESV

binding (GST-HRS (human)): binds
B3: TAK1 (endogenous) (protein, UniProt O43318 1-606)
chain: MSTASAASSSSSSSAGEMIEAPSQVLNFEEIDYKEIEVEEVVGRGAFGVVCKAKWRAKDVAIKQIESESERKAFIVELRQLSRVNHPNIVKLYGACLNPVCLVMEYAEGGSLYNVLHGAEPLPYYTAAHAMSWCLQCSQGVAYLHSMQPKALIHRDLKPPNLLLVAGGTVLKICDFGTACDIQTHMTNNKGSAAWMAPEVFEGSNYSEKCDVFSWGIILWEVITRRKPFDEIGGPAFRIMWAVHNGTRPPLIKNLPKPIESLMTRCWSKDPSQRPSMEEIVKIMTHLMRYFPGADEPLQYPCQYSDEGQSNSATSTGSFMDIASTNTSNKSDTNMEQVPATNDTIKRLESKLLKNQAKQQSESGRLSLGASRGSSVESLPPTSEGKRMSADMSEIEARIAATTAYSKPKRGHRKTASFGNILDVPEIVISGNGQPRRRSIQDLTVTGTEPGQVSSRSSSPSVRMITTSGPTSEKPTRSHPWTPDDSTDTNGSDNSIPMAYLTLDHQLQPLAPCPNSKESMAVFEQHCKMAQEYMKVQTEIALLLQRKQELVAELDQDEKDQQNTSRLVQEHKKLLDENKSLSTYYQQCKKQLEVIRSQQQKRQGTS

binding (GST-HRS (human)): binds | binding [2]: binds
B4: TAB1 (endogenous) (protein, UniProt Q15750 1-504)
chain: T2 sequence

binding [4]: no binding
B5: GFP-tagged TBK1 (protein, UniProt Q9UHD2 1-729)
chain: MQSTSNHLWLLSDILGQGATANVFRGRHKKTGDLFAIKVFNNISFLRPVDVQMREFEVLKKLNHKNIVKLFAIEEETTTRHKVLIMEFCPCGSLYTVLEEPSNAYGLPESEFLIVLRDVVGGMNHLRENGIVHRDIKPGNIMRVIGEDGQSVYKLTDFGAARELEDDEQFVSLYGTEEYLHPDMYERAVLRKDHQKKYGATVDLWSIGVTFYHAATGSLPFRPFEGPRRNKEVMYKIITGKPSGAISGVQKAENGPIDWSGDMPVSCSLSRGLQVLLTPVLANILEADQEKCWGFDQFFAETSDILHRMVIHVFSLQQMTAHKIYIHSYNTATIFHELVYKQTKIISSNQELIYEGRRLVLEPGRLAQHFPKTTEENPIFVVSREPLNTIGLIYEKISLPKVHPRYDLDGDASMAKAITGVVCYACRIASTLLLYQELMRKGIRWLIELIKDDYNETVHKKTEVVITLDFCIRNIEKTVKVYEKLMKINLEAAELGEISDIHTKLLRLSSSQGTIETSLQDIDSRLSPGGSLADAWAHQEGTHPKDRNVEKLQVLLNCMTEIYYQFKKDKAERRLAYNEEQIHKFDKQKLYYHATKAMTHFTDECVKKYEAFLNKSEEWIRKMLHLRKQLLSLTNQCFDIEEEVSKYQEYTNELQETLPQKMFTASSGIKHTMTPIYPSSNTLVEMTLGMKKLKEEMEGVVKELAENNHILERFGSLTMDGGLRNVDCL
